Hit rate of the full screen: of about 400,000 compounds, about 13,000 (3.2%) were called active. Inconclusive means that the source gave no clear call. Such entries were picked first, then a sample of the others. The call rests on the fitted dose curve; in most records, active means well fitted cell-killing curve with a large enough effect; inconclusive means small, poorly fitted or top-dose-only effect, or effect the other way; inactive means flat fitted curve, though single readings scatter. A potency beside an inconclusive call is a rough fit, not a confirmed value.
Experiment: qHTS assay for MDR1-selective chemotherapeutics: Primary screen using the drug-selected MDR subline cells KB-V1; further: nearly all actives have a fitted effect of over 60% in size
Details: KB-V1 MDR cells viability, CellTiter-Glo, 72 h; series mostly up to 46.1 µM
Summary of the method: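 Luminescent ATP read-out (CellTiter-Glo, 10 min) measures survival of drug-selected KB-V1 MDR cells after 72 h, 37 degrees C compound exposure. Medium: phenol-red-free DMEM, 10% FBS. Values from fitted concentration-response curves.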
Potency means the concentration at half of the fitted maximal effect.

SMILES | Potency
NC(=O)c1sc2nc3c(c(-c4ccco4)c2c1N)CCCC3 | inconclusive: 9.2 µM [cytotoxic, partial curve]
CCn1c(=O)c(C(=O)NNC(=O)c2ccccc2F)c(O)c2ccccc21 | active: 10.3 µM
Cn1ccnc1CN1CCCCC1C(=O)Nc1ccc(Oc2cccnc2)cc1 (stereo not drawn) | inconclusive: 29.1 µM [cytotoxic, single point]
COc1cc(C(=O)Nc2cccc(NC(=O)c3ccccc3)c2)cc(OC)c1OC | inconclusive: 29.1 µM [cytotoxic, single point]
CN(C)C(CNC(=O)c1ccc2nc[nH]c2c1)c1ccccc1 (stereo not drawn) | inactive
COc1ccc(NC(=O)Cn2c(=O)n(CCC(=O)NCc3ccccc3OC)c(=O)c3ccccc32)cc1Cl | inconclusive: 14.6 µM [rising, partial curve]
Cc1cccc(N2CCN(CCCNc3ncnc4onc(-c5ccc(Cl)cc5)c34)CC2C)c1 (stereo not drawn) | inconclusive: 18.4 µM [rising, partial curve, poor fit]
CCOc1ccccc1N(C)C(=O)C1CCN(S(=O)(=O)c2cccc3nonc23)CC1 | inconclusive: 10.3 µM [cytotoxic, partial curve, poor fit]
C=CCn1c(C)cc(C(=O)COc2ncnc3sccc23)c1C | inconclusive: 25.9 µM [cytotoxic, single point]
O=C(NCc1ccccc1)c1ccc(OCC2CCCO2)cc1 (stereo not drawn) | inactive
Cc1ccc2c(c1)[nH]c1c(=O)n(CCCN3CCOCC3)cnc12 | inconclusive: 14.6 µM [cytotoxic, partial curve]
C/C(=N\Nc1cc(-c2ccccc2)nc(-c2ccccc2)n1)c1ccc(O)c(C)c1 | inconclusive: 29.1 µM [cytotoxic, single point]
O=C(Nc1ccc(S(=O)(=O)N2CCN(Cc3ccccc3)CC2)cc1)c1cnccn1 | active: 2.31 µM
COc1cccc(CNC(=O)CCc2c(C)nc3c(c(C)nn3-c3ccc(C)c(C)c3)c2C)c1 | inconclusive: 20.6 µM [cytotoxic, single point]
Cc1cc(F)ccc1S(=O)(=O)NCC(c1ccc2c(c1)OCO2)N1CCOCC1 (stereo not drawn) | inconclusive: 29.1 µM [rising, single point]
O=c1c2ccccc2c(C=Nc2ccc(O)cc2)c(O)n1Cc1ccccc1 | inconclusive: 18.4 µM [rising, single point]
CCN(Cc1cccc(S(=O)(=O)O)c1)c1ccc(C(=C2C=CC(=[N+](CC)Cc3cccc(S(=O)(=O)O)c3)C=C2)c2ccc(O)cc2S(=O)(=O)O)cc1 | inactive
O=C(NCc1ccc2c(c1)OCO2)c1ccc(COc2cc(Cl)ccc2Cl)o1 | inconclusive: 16.4 µM [cytotoxic, single point]
C[n+]1ccc(/C=C/c2cccs2)cc1 | inactive
O=C(Nc1ccc(Cl)cc1)C1Cc2c(-c3ccccc3Oc3ccccc3)ccnc2O1 (stereo not drawn) | inconclusive: 14.6 µM [cytotoxic, partial curve]
O=c1[nH]cccc1-c1nc2ccccc2n1Cc1ccc(F)cc1 | inactive
CCn1c2ccccc2c2cc(NC(=O)CSc3nnc(-c4cccc(F)c4)o3)ccc21 | active: 11.6 µM
CC1CN(C(=O)c2cc(S(=O)(=O)N3CCCCC3)ccc2Cl)CC(C)O1 (stereo not drawn) | active: 20.6 µM

SMILES | Potency
COC(=O)c1c(NC(=O)CN2CCN(c3ccccc3Cl)CC2)sc(C)c1C | inconclusive: 23.1 µM [cytotoxic, partial curve, poor fit]
Cc1ccc(S(=O)(=O)NC2CC(=O)N(c3ccc4c(c3)OCCO4)C2)cc1 (stereo not drawn) | inconclusive: 16.4 µM [cytotoxic, single point]
COc1ccc(OC)c(CN2C(=O)CCC2(C)c2nnnn2Cc2ccccc2)c1 (stereo not drawn) | inconclusive: 9.2 µM [cytotoxic, partial curve, poor fit]
CN(C)S(=O)(=O)c1ccc(C(=O)Nc2nnc(-c3cccs3)o2)cc1 | inconclusive: 0.206 µM [cytotoxic, full curve, poor fit]
CN(Cc1ccc(Cl)c(Cl)c1)C(C(=O)NCc1ccccc1)c1ccco1 (stereo not drawn) | inconclusive: 29.1 µM [cytotoxic, single point]
COc1cc(C(c2c(C)[nH][nH]c2=O)c2c(C)[nH][nH]c2=O)cc(Br)c1OC | inconclusive: 0.731 µM [rising, full curve, poor fit]
CCc1ccc2oc(-c3ccc(C)c(NC(=O)COc4ccc(Cl)cc4)c3)nc2c1 | inactive
Cc1ccc(S(=O)(=O)CCC(=O)OC(C)C(=O)Nc2ccc(N3CCOCC3)cc2)cc1 (stereo not drawn) | inconclusive: 16.4 µM [cytotoxic, single point]
Cc1nn(C)c(Cl)c1CN1CCC(CO)(CC2CCCCO2)CC1 (stereo not drawn) | inconclusive: 29.1 µM [cytotoxic, single point]
Cc1cccc(C(=O)NNC(=O)c2c(O)c3ccccc3n(C)c2=O)c1 | inconclusive: 8.2 µM [cytotoxic, partial curve]
CCOC(=O)c1cnc2c(C)c(C)ccc2c1Nc1ccc(S(=O)(=O)Nc2ncccn2)cc1 | inactive
C[C@@H](NCCCc1cccc(C(F)(F)F)c1)c1cccc2ccccc12 | inconclusive: 29.1 µM [cytotoxic, single point]
Cc1nnc(SCC(=O)c2cc(C)n(-c3ccc4c(c3)OCO4)c2C)s1 | inconclusive: 14.6 µM [cytotoxic, partial curve, poor fit]
CN(C)/C=C(/C(=O)c1ccccc1)n1cncn1 | inactive
COc1ccccc1N1CCN(C(=O)CN(c2ccccc2OC)S(=O)(=O)c2ccccc2)CC1 | active: 23.1 µM
Cc1ccc(S(=O)(=O)N2[C@@H](c3ccccc3)C(C(=O)O)=CC[C@H]2c2ccc(C(C)C)cc2)cc1 | inconclusive: 18.4 µM [rising, single point]
COC(=O)C(N)CCCCN (stereo not drawn) | inactive
Cc1cc(OCCn2cc(C(=O)c3cccs3)c3ccccc32)ccc1Cl | inactive
Cc1ccc2oc(C(=O)N(Cc3ccncc3)CC3CCCO3)c(C)c2c1 (stereo not drawn) | inconclusive: 8.2 µM [cytotoxic, partial curve]
O=C(c1cc(COc2cccc(C(F)(F)F)c2)on1)N1CCC(Oc2cccnc2)CC1 | inconclusive: 7.31 µM [cytotoxic, partial curve]
O=C(NCc1ccncc1)c1cc(F)c(F)cc1Cl | inconclusive: 16.4 µM [rising, partial curve]
CCn1c(C)c(CCC(=O)O)c(=O)n2nc(-c3ccccc3OC)cc12 | inactive
COc1ccc(NC(=O)CN(C)C(=O)CNC(=O)Cc2cccc3ccccc23)cc1 | inactive

Some of these compounds in order of SMILES length, low to high:
SMILES | Potency
NC(=O)c1sc2nc3c(c(-c4ccco4)c2c1N)CCCC3 | inconclusive: 9.2 µM [cytotoxic, partial curve]
Cc1nn(C)c(Cl)c1CN1CCC(CO)(CC2CCCCO2)CC1 (stereo not drawn) | inconclusive: 29.1 µM [cytotoxic, single point]
Cc1cc(OCCn2cc(C(=O)c3cccs3)c3ccccc32)ccc1Cl | inactive
Cc1ccc(S(=O)(=O)NC2CC(=O)N(c3ccc4c(c3)OCCO4)C2)cc1 (stereo not drawn) | inconclusive: 16.4 µM [cytotoxic, single point]

Remaining list, next part.

SMILES | Potency
O=C(COc1cccnc1[N+](=O)[O-])NCc1cccs1 | inactive
O=C(COc1ccccc1Cl)Nc1ccccc1C(=O)N1CCOCC1 | inconclusive: 18.4 µM [cytotoxic, single point]
CCCCC1CCC(C(=O)N(CCC(C)C)c2c(N)n(CCCC)c(=O)[nH]c2=O)CC1 (stereo not drawn) | inactive
CC(C)C[C@@H](CN1CCC[C@@H]1CN1C(=S)NC[C@@H]1Cc1ccccc1)N1C[C@H](Cc2ccc(O)cc2)N(CCc2ccccc2)C1=S | inconclusive: 29.1 µM [cytotoxic, single point]
COc1ccc(C(C)NC(=O)c2cccc([N+](=O)[O-])c2)cc1OC (stereo not drawn) | active: 16.4 µM
COc1ccc(C(=O)C2CCCN(C(=O)c3ccc(OC)o3)C2)c(C)c1 (stereo not drawn) | inconclusive: 16.4 µM [cytotoxic, partial curve]
CC(Oc1ccc(F)cc1)C(=O)N1CCC(c2nc3ccccc3s2)CC1 (stereo not drawn) | active: 8.2 µM
O=C(Nc1ccc(S(=O)(=O)N2CCCC2)cc1)c1cnccn1 | inactive
COc1ccc(C(=O)COC(=O)CNC(=O)c2ccc(OC)cc2)cc1 | inactive
CC(C)Cc1ccc(CN2CCCC(NC(=O)Cn3cnnn3)C2)cc1 (stereo not drawn) | inconclusive: 9.2 µM [cytotoxic, partial curve, poor fit]
O=C(NCc1ccc(Cl)cc1)Nc1ccc(F)cc1 | inconclusive: 5.8 µM [rising, partial curve, poor fit]
COc1ccc(-n2nnnc2-c2ccccc2)cc1 | active: 9.2 µM
O=C(CCCSc1ccccc1)Nc1cccc(CO)c1 | inconclusive: 29.1 µM [rising, single point]
CCn1c(-c2ccc(C)cc2)nn(CC(=O)NCCc2ccccc2)c1=S | inconclusive: 20.6 µM [cytotoxic, partial curve, poor fit]
C/C=C/Cn1c(SCc2ccc(C)cc2)nc2c1c(=O)[nH]c(=O)n2C | inconclusive: 3.26 µM [cytotoxic, full curve]
OC[C@@H]1CN(Cc2ccc(Cl)cc2)C[C@H](n2cnc3c(NCc4ccc(F)cc4)ncnc32)O1 | inconclusive: 16.4 µM [cytotoxic, single point]
CCOc1ccc(/C(O)=C2\C(=O)C(=O)N(c3ccccn3)C2c2ccccc2F)c(C)c1 (stereo not drawn) | inconclusive: 16.4 µM [cytotoxic, single point]
C=CCC1(Cl)C(=O)C(Cl)=C(N2CCN(C)CC2)C1(OC)OC (stereo not drawn) | inactive
COc1ccc(C2=CN3CCCCC3CC2=O)cc1OC (stereo not drawn) | inconclusive: 23.1 µM [cytotoxic, single point]
COc1ccc(C)cc1NC(=O)CCS(=O)(=O)c1cc2c3c(c1)CCN3C(=O)CC2 | inactive
COc1ccc(S(=O)(=O)N(Cc2ccco2)Cc2cc3ccccc3[nH]c2=O)cc1 | inconclusive: 5.8 µM [cytotoxic, full curve]
O=C(CC1SC(=O)N(Cc2ccccc2Cl)C1=O)Nc1nccs1 (stereo not drawn) | inactive
